Assay results: paper PMC9239103, “System-Wide Analysis of the GATC-Binding Nucleoid-Associated Protein Gbn and Its Impact on Streptomyces Development”
Weaker means in comparison with the reference protein, sequence or condition of that experiment. Protein sequences can lack the tags named with them.

Biological target: T1, Gbn (SCO1839) (Streptomyces coelicolor A3(2) M145) (UniProt Q9RJ29)
T1 sequence (looked up): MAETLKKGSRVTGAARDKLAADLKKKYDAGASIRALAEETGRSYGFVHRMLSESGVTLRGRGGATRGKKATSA
Test: EMSA
Conditions: binds, with higher half-binding concentration than N1, 5 nM DNA; EMSA: 10 mM Tris-HCl pH 7.9, 0.1 mM EDTA, 50 mM KCl, 30 C 15 min, 5% PAGE, ethidium bromide; recombinant protein; residues 1-73

TCGATGTAGGACACACCTCTTGATGAGGAGATCTCACACAGATGGCGGAT (double strand) [p1839_50Single_weak (+, GATC)]
binding result: binds more weakly
